Test results reported in paper doi:10.1101/2023.07.23.23292673.
Results are given in words; binding and its absence hold for the method and conditions named. In cells and extracts the contact can be indirect. Some binding calls cover weakened binding; strength is not graded here. Each block holds one molecule with its values, some of them ahead of it.

The chains behind the UniProt entries cited, without tags or fusion partners. Residues count along the entry.
UniProt P35968, residues 20-1356: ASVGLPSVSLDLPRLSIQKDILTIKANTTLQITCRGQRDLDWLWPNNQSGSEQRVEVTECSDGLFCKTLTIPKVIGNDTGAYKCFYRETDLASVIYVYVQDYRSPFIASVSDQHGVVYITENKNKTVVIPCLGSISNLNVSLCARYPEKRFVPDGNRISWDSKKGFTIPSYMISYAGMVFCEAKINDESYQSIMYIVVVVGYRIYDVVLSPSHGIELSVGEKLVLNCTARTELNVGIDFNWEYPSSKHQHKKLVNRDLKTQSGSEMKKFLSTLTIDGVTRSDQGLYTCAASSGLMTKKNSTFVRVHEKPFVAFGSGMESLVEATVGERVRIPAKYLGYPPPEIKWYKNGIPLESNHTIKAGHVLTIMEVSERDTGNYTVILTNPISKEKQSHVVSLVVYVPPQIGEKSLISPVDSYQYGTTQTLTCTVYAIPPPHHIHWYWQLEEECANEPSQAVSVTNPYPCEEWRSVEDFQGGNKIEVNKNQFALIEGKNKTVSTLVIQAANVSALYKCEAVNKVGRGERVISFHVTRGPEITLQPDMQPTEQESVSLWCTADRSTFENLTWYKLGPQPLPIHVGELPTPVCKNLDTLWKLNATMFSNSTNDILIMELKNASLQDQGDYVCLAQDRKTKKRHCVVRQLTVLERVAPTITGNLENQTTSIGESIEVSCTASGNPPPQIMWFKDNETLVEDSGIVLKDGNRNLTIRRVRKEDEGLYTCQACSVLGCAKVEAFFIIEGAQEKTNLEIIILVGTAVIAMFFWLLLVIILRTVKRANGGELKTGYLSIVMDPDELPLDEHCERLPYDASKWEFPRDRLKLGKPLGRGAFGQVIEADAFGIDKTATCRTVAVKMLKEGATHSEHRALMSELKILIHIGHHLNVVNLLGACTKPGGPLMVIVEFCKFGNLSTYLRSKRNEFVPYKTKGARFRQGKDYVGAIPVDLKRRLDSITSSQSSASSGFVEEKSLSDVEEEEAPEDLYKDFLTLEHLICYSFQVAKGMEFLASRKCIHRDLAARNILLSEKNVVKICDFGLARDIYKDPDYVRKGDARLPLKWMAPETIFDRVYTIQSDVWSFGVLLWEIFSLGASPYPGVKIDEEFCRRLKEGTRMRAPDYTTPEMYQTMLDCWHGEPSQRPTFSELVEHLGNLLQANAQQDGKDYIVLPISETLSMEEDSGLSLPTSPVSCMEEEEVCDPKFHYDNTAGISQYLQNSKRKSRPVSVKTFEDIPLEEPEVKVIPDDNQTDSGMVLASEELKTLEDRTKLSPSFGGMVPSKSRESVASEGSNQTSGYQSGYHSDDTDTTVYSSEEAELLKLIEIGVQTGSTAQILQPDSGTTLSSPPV
UniProt P30559: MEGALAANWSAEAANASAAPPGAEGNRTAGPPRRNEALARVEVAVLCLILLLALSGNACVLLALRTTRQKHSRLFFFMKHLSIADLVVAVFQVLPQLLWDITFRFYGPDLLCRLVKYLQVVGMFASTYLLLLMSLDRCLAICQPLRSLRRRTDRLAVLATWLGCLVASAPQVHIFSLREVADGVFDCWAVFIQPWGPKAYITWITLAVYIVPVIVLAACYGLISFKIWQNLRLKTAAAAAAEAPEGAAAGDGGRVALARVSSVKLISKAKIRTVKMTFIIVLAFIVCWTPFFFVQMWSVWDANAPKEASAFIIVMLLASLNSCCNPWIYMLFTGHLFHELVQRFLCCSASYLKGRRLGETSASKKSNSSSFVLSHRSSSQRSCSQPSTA
UniProt P37288: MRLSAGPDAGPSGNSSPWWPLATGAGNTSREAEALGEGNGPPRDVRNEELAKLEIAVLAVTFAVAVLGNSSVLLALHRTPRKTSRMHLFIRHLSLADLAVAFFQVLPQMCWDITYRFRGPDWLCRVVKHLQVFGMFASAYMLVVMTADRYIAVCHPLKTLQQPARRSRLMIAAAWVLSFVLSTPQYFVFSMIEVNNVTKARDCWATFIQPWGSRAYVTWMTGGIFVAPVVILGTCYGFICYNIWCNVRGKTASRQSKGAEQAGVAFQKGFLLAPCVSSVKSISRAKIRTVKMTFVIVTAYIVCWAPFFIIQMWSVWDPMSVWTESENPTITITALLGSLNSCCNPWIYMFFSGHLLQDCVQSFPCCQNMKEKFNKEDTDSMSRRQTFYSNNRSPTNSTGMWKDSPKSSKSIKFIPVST

How the values were obtained:
Experiment in all cases: co-IP
[1] = biological target: VEGFR2 (human (endogenous in placental chorionic villi)) (UniProt P35968)
[2] = biological target: T1, MDMX (Double minute 4 protein) (human (endogenous in placental chorionic villi)) (UniProt O15151)
T1 sequence: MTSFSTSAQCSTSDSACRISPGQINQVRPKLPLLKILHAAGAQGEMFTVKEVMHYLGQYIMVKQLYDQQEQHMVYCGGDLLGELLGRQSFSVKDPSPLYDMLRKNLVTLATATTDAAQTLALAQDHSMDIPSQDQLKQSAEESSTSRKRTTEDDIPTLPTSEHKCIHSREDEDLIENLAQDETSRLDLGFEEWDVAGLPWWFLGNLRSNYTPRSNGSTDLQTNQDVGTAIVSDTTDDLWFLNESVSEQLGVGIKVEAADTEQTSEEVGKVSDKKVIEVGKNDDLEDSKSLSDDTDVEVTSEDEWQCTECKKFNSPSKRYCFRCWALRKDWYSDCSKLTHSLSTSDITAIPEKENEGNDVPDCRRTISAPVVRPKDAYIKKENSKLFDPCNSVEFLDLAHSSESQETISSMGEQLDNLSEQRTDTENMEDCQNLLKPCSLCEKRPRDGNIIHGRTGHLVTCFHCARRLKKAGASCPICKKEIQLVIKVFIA

[3] = biological target: T2, PICALM (Phosphatidylinositol-binding clathrin assembly protein) (human (endogenous in placental chorionic villi)) (UniProt Q13492)
T2 sequence: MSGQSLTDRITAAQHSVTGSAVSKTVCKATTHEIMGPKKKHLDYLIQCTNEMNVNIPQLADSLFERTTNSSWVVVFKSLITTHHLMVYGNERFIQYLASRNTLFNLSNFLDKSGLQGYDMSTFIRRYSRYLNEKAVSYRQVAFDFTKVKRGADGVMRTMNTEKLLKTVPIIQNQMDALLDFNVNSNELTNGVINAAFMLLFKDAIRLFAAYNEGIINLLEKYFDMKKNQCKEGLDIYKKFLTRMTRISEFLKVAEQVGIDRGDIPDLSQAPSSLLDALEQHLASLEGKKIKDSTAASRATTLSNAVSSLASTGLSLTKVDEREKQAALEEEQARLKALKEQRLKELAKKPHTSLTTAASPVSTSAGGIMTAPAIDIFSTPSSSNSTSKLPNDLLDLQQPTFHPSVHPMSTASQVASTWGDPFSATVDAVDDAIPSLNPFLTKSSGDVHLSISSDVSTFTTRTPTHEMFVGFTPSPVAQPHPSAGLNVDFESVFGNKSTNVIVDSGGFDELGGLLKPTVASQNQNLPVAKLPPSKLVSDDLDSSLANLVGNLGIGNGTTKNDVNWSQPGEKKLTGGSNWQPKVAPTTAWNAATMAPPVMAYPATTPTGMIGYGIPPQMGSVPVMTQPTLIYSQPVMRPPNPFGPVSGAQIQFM

- binding [1]: no binding
- binding [2]: binds
- binding [3]: binds
Molecule: oxytocin receptor (OT-R) (from UniProt P30559 1-389)

- binding [1]: no binding
- binding [2]: binds
- binding [3]: binds
Molecule: vasopressin V1aR receptor (from UniProt P37288 1-418)

- binding [1]: binds
B1: MDMX (Double minute 4 protein) (protein, UniProt O15151 1-490)
chain: T1 sequence
